Results: PubChem BioAssay AID504444 (National Center for Advancing Translational Sciences (NCATS), 2011)
The campaign covered roughly 360,000 compounds. About 7,500 (2.1%) were called active. Inconclusive results, whose numbers are uncertain, are shown with a selection of clear calls. Calls come from the whole dose curve; as a rule, active = well fitted inhibition curve with a large enough effect; inconclusive = small, poorly fitted or top-dose-only effect, or effect the other way; inactive = flat fitted curve, though single readings scatter. Where the call is inconclusive, the potency comes from a doubtful curve fit. Where a structure was tested more than once in an assay, its records may differ in their call.

Assay: Nrf2 qHTS screen for inhibitors; note: nearly all actives have a fitted effect of over 60% in size
Conditions: A549 ARE-Fluc reporter, luciferase luminescence, 18-24 h; activity change, negative = inhibition: at 46 µM (top of the series)
Method in brief: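 Two sequential reads on A549 ARE_Fluc cells exposed to compound for 18-24 h: a CellTiter-Fluor fluorescence read for viability, then a luciferase luminescence read for Nrf2/ARE activity.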
% is set by controls: 0 for no effect and ±100 for the full control effect; potency is the fitted concentration of half-maximal effect.

For `COc1cccc(CNC(=O)CNS(=O)(=O)c2ccc(Br)s2)c1`, which Potency is on record?
The Potency was inconclusive: 18.4 µM [falling, single point].

Which Potency does the source give for `COc1cccc(/C=N\NC(=O)c2ccc(C)nc2)c1` here?
Its Potency is inconclusive: 18.4 µM [activator, single point].

For `O=C(O)c1ccc(C[n+]2c(-c3ccccc3)csc2Nc2ccccc2)cc1`, which Potency is on record?
Its Potency is inconclusive: 18.4 µM [falling, partial curve, poor fit].

With `Oc1ccc(N=Nc2ccc3c(c2)OCCO3)c(O)c1` as the molecule, how does the Potency read?
The Potency was inconclusive: 16.4 µM [falling, single point].

For `Cc1cc(C)n(-c2ccc(Cl)c(C(=O)NCc3ccccc3)n2)n1`, which Potency is on record?
Its Potency is inconclusive: 29.1 µM [falling, single point].

For `CCn1c(COc2ccccc2C)nnc1SCC(=O)NC1CCCC1`, which Potency is on record?
The Potency was inconclusive: 23.1 µM [falling, partial curve, poor fit].

With `COc1ccc(-c2cc(=O)c3cc(C)ccc3[nH]2)cc1` as the molecule, how does the Potency read?
The Potency was inconclusive: 20.6 µM [activator, partial curve].

With `Cc1ccc2nc3c(cc2c1)c(NC(=O)c1cccnc1)nn3C` as the molecule, how does the Potency read?
The Potency was inconclusive: 1.84 µM [activator, full curve, poor fit].

For `O=C(/C=C/c1ccc(Cl)cc1)NCCCn1ccnc1`, which Potency is on record?
The Potency was inconclusive: 23.1 µM [falling, single point].

With `Cc1ccc(OCC(=O)NCCCNC(=O)c2cccnc2)cc1` as the molecule, how does the Potency read?
Its Potency is active: 1.84 µM.

With `COc1ccc(C(=O)CN2CCN(CCN3C(=O)c4cccc5cccc(c45)C3=O)CC2)cc1` as the molecule, how does the Potency read?
Its Potency is inconclusive: 16.4 µM [falling, single point].

With `CCOc1ccc(NC(=O)Cn2nnc(-c3ccccc3NC(=O)c3cccs3)n2)cc1` as the molecule, how does the Potency read?
The Potency was inconclusive: 29.1 µM [falling, single point].

For `CCCCCC(=O)Nc1cccc(C2=NOC3(C2)C[C@H](C(N)=O)N(C(=O)c2ccccc2C(=O)c2ccccc2)C3)c1` (some centres not stated), which “activity change, negative = inhibition” value is on record?
The value was inactive: 0.297%.

Which “activity change, negative = inhibition” value does the source give for `CC(C)(C)OC(=O)C[C@H]1C/C=C\C[C@@H](CC(=O)N[C@@H](CO)Cc2ccccc2)C(=O)N2CCC[C@@H]2COC1=O` here?
The value was inactive: -3.29%.

Which Potency does the source give for `O=C(Cn1nc(-c2ccccc2)ccc1=O)NCc1ccc(F)cc1` here?
Its Potency is inconclusive: 23.1 µM [activator, single point].

Which Potency does the source give for `CN(C)CCNC(=O)c1ccc2c(=O)n3c(nc2c1)CCCCC3` here?
Its Potency is inconclusive: 29.1 µM [activator, single point].

Which Potency does the source give for `Cc1ccc(C)n1-c1c(C(=O)NN)cnn1-c1ccccc1` here?
Its Potency is inconclusive: 8.2 µM [falling, partial curve, poor fit].

For `CCOC(=O)N1CCN(c2c(F)cc3[nH]c(=S)[nH]c3c2Br)CC1`, which Potency is on record?
Its Potency is inconclusive: 29.1 µM [falling, single point].

With `CC(C)(C)c1ccc(-c2nc(SCCCOc3ccccc3)n3[nH]c(=O)cc3n2)cc1` as the molecule, how does the Potency read?
Its Potency is inconclusive: 32.6 µM [falling, single point].

With `O=C(Nc1ccc2oc(-c3ccccc3F)nc2c1)c1ncn[nH]1` as the molecule, how does the Potency read?
The Potency was inconclusive: 2.91 µM [activator, full curve].

With `COc1ccc(C(=O)CSc2nnc(CNC(=O)c3ccco3)n2C)cc1OC` as the molecule, how does the “activity change, negative = inhibition” value read?
The value was inactive: -6.42%.

With `COc1ccc(-c2c3c(=O)n(C)c(=O)n(C)c3c3c(C)nc4ccccc4n23)cc1` as the molecule, how does the Potency read?
The Potency was inconclusive: 20.6 µM [falling, partial curve].

For `O=C(CSc1nncs1)NC(=O)NC1CCCC1`, which Potency is on record?
Its Potency is inconclusive: 18.4 µM [falling, partial curve].

Which Potency does the source give for `Cc1ccc(NC(=O)CSc2nnc(-c3ccco3)c(-c3ccco3)n2)cc1` here?
Its Potency is inconclusive: 3.66 µM [falling, full curve, poor fit].

For `COc1cc2[nH]c(-c3ccc(C)cc3)cc(=O)c2cc1OC`, which Potency is on record?
Its Potency is inconclusive: 20.6 µM [activator, single point].

For `CCOC(=O)c1ccccc1NC(=O)N(C(C)C)C1CCN(C(C)=O)CC1`, which “activity change, negative = inhibition” value is on record?
The value was inactive: 6.48%.

With `CC(C)(C)c1ccc(C(=O)Nc2ccc(NC(=O)C(=O)O)cc2)o1` as the molecule, how does the Potency read?
The Potency was inconclusive: 20.6 µM [falling, partial curve, poor fit].

With `COc1ccc2c(c1)C=C(C(=O)NCc1ccc(Cl)cc1)CO2` as the molecule, how does the Potency read?
Its Potency is inconclusive: 16.4 µM [falling, single point].

Which Potency does the source give for `COc1ccc(CCN2C(=O)NC(NS(=O)(=O)c3ccc(Cl)cc3)(C(F)(F)F)C2=O)cc1OC` (configuration not stated) here?
Its Potency is inconclusive: 20.6 µM [activator, single point].

With `CC(C)(C)c1ccc(C(CC(=O)O)NC(=O)c2ccccc2F)cc1` (configuration not stated) as the molecule, how does the Potency read?
Its Potency is inconclusive: 13 µM [falling, partial curve, poor fit].

For `CC(=O)N1CCc2c(sc3c2c(=O)n(CCc2ccccc2)c(=O)n3Cc2ccc(Cl)cc2)C1`, which Potency is on record?
Its Potency is inconclusive: 23.1 µM [falling, single point].

Which Potency does the source give for `CCOC(=O)N1CCN(C(=O)c2ccc(NS(=O)(=O)c3ccc(C)cc3)cc2)CC1` here?
The Potency was inconclusive: 20.6 µM [falling, partial curve].

Which Potency does the source give for `C=C(C)Cn1c(=O)c2c(nc3n2CCN3c2cccc(Cl)c2C)n(C)c1=O` here?
Its Potency is inconclusive: 16.4 µM [falling, partial curve, poor fit].

With `Cc1ccc(OCC(=O)Nc2ccc3c(c2)OCO3)c([N+](=O)[O-])n1` as the molecule, how does the Potency read?
The Potency was inconclusive: 2.59 µM [activator, full curve].

With `CCOC(=O)C1CCN(C(=O)Cn2c(=O)oc3cc(S(=O)(=O)N4CCC(C)CC4)ccc32)CC1` as the molecule, how does the “activity change, negative = inhibition” value read?
Its value is inactive: 14.8%.

Which “activity change, negative = inhibition” value does the source give for `CCCCOC(=O)N/N=C/C=C/c1ccccc1` here?
Its value is inactive: 8.11%.

With `C=C1CC2C3CC[C@@]4(OCOC45COCO5)[C@@]3(C)C(O)CC2[C@@]2(C)CCC(=O)C=C12` (some centres not stated) as the molecule, how does the Potency read?
Its Potency is inconclusive: 29.1 µM [falling, single point].

Which “activity change, negative = inhibition” value does the source give for `CC(NCc1ccc(OCC(N)=O)cc1)C12CC3CC(CC(C3)C1)C2` (configuration not stated) here?
Its value is inactive: 21.9%.

With `CN(c1ccc(C(=O)N2CCOCC2)cc1)S(=O)(=O)c1ccc(Cl)cc1` as the molecule, how does the Potency read?
The Potency was inconclusive: 4.11 µM [falling, full curve, poor fit].

With `O=C(CCS(=O)(=O)c1cccs1)Nc1ccc(C(=O)Nc2ccccc2F)cc1` as the molecule, how does the “activity change, negative = inhibition” value read?
Its value is inactive: 14.5%.

With `CCc1cc(C(=O)OC)c(NC(=O)CC2Nc3cc(C)c(C)cc3NC2=O)s1` (configuration not stated) as the molecule, how does the “activity change, negative = inhibition” value read?
The value was inactive: 3.25%.

Which “activity change, negative = inhibition” value does the source give for `CCOc1ccc(N2C(=O)C(Cl)=C(Nc3ccccc3O)C2=O)cc1` here?
Its value is inactive: 10.4%.

With `O=[N+]([O-])c1ccc(N(CC(O)CN2CCCCC2)S(=O)(=O)c2ccccc2)cc1` (configuration not stated) as the molecule, how does the Potency read?
Its Potency is inconclusive: 23.1 µM [activator, partial curve, poor fit].

For `COCC(C)n1c(SCC(=O)Nc2nccs2)nc2ccccc2c1=O` (configuration not stated), which Potency is on record?
Its Potency is inconclusive: 8.2 µM [falling, partial curve].

For `CCc1ccc(NC(=O)c2ccc3[nH]c(C)c(C)c3c2)cc1`, which Potency is on record?
Its Potency is inconclusive: 29.1 µM [activator, single point].

For `Cc1sc2nc[nH]c(=O)c2c1-c1ccc(Cl)cc1`, which “activity change, negative = inhibition” value is on record?
The value was inactive: -7.92%.

With `COc1ccc(OCCN2CCN(C(=O)c3ccc(OC)cc3)CC2)cc1` as the molecule, how does the Potency read?
Its Potency is active: 10.3 µM.

For `O=C(OCC(=O)N1CCCC1)c1cc(Br)ccc1Cl`, which Potency is on record?
The Potency was inconclusive: 32.6 µM [activator, partial curve, poor fit].

With `CCOC(=O)N1CCC(N2CCN(S(=O)(=O)c3ccc([N+](=O)[O-])cc3)CC2)CC1` as the molecule, how does the Potency read?
Its Potency is inconclusive: 29.1 µM [falling, single point].

For `O=C(Cn1cc([N+](=O)[O-])cn1)NC1CCCCCC1`, which “activity change, negative = inhibition” value is on record?
The value was inactive: 5.9%.

With `O=C(NNC(=O)c1cccnc1)NC1CCCCC1` as the molecule, how does the Potency read?
Its Potency is inconclusive: 5.17 µM [activator, partial curve, poor fit].

With `Cc1cc(C)cc(S(=O)(=O)c2cn(C)c3cc(N4CCCC4)c(F)cc3c2=O)c1` as the molecule, how does the Potency read?
The Potency was inconclusive: 29.1 µM [falling, single point].

Which Potency does the source give for `CCCCOc1ccc(C(=O)C(CN2CCOCC2)c2ccccc2)cc1` (configuration not stated) here?
Its Potency is inconclusive: 25.9 µM [falling, single point].

For `COc1ccc(OC)c(NC(=O)CSc2nc(N3CCOCC3)nc(N3CCOCC3)n2)c1`, which Potency is on record?
The Potency was inconclusive: 6.51 µM [falling, full curve, poor fit].

With `O=C(Nc1ccc(Cl)cc1)Nc1ccc2c(c1)N1CCN=C1S2` as the molecule, how does the Potency read?
The Potency was inconclusive: 18.4 µM [falling, single point].

For `COc1ccc(/C=N\Nc2ccccn2)c(OC)c1`, which Potency is on record?
Its Potency is inconclusive: 4.11 µM [activator, partial curve].

For `COc1ccc(C(=O)n2nc(-c3ccco3)nc2NCc2cccs2)cc1OC`, which “activity change, negative = inhibition” value is on record?
Its value is inactive: 4.46%.

For `CC(/C=N/NC(=O)c1n[nH]c2c1CCC2)=C\c1ccccc1`, which “activity change, negative = inhibition” value is on record?
The value was inactive: 28.2%.

With `O=C(CN1CCN(S(=O)(=O)c2ccc(Br)cc2)CC1)N/N=C/c1ccc(Cl)c([N+](=O)[O-])c1` as the molecule, how does the “activity change, negative = inhibition” value read?
The value was inactive: 11.9%.

With `COC(=O)c1c(NC(=O)CN2CCC3(O)CCCCC3C2c2ccc(F)cc2)sc(C)c1C` (configuration not stated) as the molecule, how does the Potency read?
Its Potency is inconclusive: 32.6 µM [falling, single point].

Which “activity change, negative = inhibition” value does the source give for `CCOc1ccc(C(=O)NCC(=O)N2CCCCCCC2)cc1` here?
The value was inactive: 0.896%.

For `O=C1c2sc3nc4c(c(=O)n3c2C(=O)N1c1ccccc1)CCC4`, which Potency is on record?
The Potency was inconclusive: 14.6 µM [falling, partial curve].

With `CCC(=O)NC(c1ccco1)c1cc(Cl)c2cccnc2c1O` (configuration not stated) as the molecule, how does the Potency read?
Its Potency is active: 9.2 µM.

For `COc1ccc(-c2nc(CSc3nncn4c3cc3sccc34)c(C)o2)cc1OC`, which Potency is on record?
The Potency was inconclusive: 16.4 µM [activator, single point].

Which “activity change, negative = inhibition” value does the source give for `CCOC(=O)N1CCN(C(=O)CCN2C(=O)COc3ccccc32)CC1` here?
Its value is inactive: -5.98%.

Which Potency does the source give for `COc1ccc(C2=NS(=O)(=O)N(C)C(C(=O)Nc3ccc(OC)c(OC)c3)=C2)cc1` here?
Its Potency is inconclusive: 25.9 µM [falling, partial curve, poor fit].

With `CCOc1ccc(C(C)NC(=S)NC2CCCCC2)cc1OCC` (configuration not stated) as the molecule, how does the Potency read?
Its Potency is inconclusive: 18.4 µM [falling, single point].
